Experimental data published in PubChem BioAssay AID504847 (National Center for Advancing Translational Sciences (NCATS), 2011).
Values joined by “and” are separate entries in the source; they are usually repeats but may differ in a detail not shown here. Equal entries are not always repeated. In all, about 400,000 compounds went through this assay and about 3,700 (0.93%) were called active. The inconclusive results got no clear call from the source; some entries with a clear call stand among them for comparison. Calls come from the whole dose curve; as a rule, active = well fitted inhibition curve with a large enough effect; inconclusive = small, poorly fitted or top-dose-only effect, or another doubt; inactive = no such curve, though single readings can be large or run the other way. A potency beside an inconclusive call is a rough fit, not a confirmed value.

Sequences of proteins named here, by UniProt entry; tags and fusion partners are left off. A change or cut given only in a name is not applied to a line headed by its entry.
UniProt P11473: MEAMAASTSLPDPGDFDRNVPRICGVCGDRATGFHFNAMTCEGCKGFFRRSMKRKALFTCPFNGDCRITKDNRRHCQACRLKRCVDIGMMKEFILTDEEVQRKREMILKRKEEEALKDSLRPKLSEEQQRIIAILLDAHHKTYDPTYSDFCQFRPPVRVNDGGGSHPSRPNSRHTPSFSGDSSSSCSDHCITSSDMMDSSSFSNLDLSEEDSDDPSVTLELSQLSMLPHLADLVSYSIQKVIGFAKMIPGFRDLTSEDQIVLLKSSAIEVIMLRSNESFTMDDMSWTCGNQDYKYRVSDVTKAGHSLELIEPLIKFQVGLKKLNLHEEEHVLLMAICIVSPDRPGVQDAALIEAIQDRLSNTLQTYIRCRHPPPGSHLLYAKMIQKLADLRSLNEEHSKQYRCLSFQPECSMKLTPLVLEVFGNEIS

target: Vitamin D3 receptor (Homo sapiens) (UniProt P11473); assay: Inhibitors of the vitamin D receptor (VDR): qHTS; conditions: VDR-SRC2-3 peptide fluorescence polarization, 2 h; max response, negative = inhibition: stronger effect = lower value
Procedure, shortened: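 VDR–SRC2-3 interaction, FP format. Cmpds 23 nl via pintool, brief spin, 2 h ambient incubation.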
% is set by controls: 0 for no effect and ±100 for the full control effect; potency is the fitted concentration of half-maximal effect.

Potency, inconclusive:
CC(C)CC(=O)/C=C/n1c(=S)oc2ccccc21 35.5 µM [inhibitor, partial curve, poor fit], O=C1c2cccc3c(Nc4ccccc4Cl)c([N+](=O)[O-])cc(c23)C(=O)N1CCO 8.91 µM [inhibitor, partial curve, poor fit], CNC(=S)NNC(=O)c1oc2nc(-c3ccccc3)cc(-c3ccco3)c2c1N 100 µM [inhibitor, partial curve, poor fit], COc1cc(C(=S)N2CCCC2)cc(OC)c1OS(=O)(=O)c1ccc(NC(C)=O)cc1 70.8 µM [inhibitor, single point], COc1ccc2oc(-c3ccc(C)c(NC(=O)CSc4ccc(Cl)cc4)c3)nc2c1 100 µM [inhibitor, partial curve, poor fit], CCOC(=O)Nc1ccc2c(c1)N(C(=O)CCN(CC)CC)c1ccccc1S2=O (stereo unspecified) 20 µM [inhibitor, full curve], c1ccc(C(NCc2cccnc2)(c2ccccc2)c2ccccc2)cc1 14.1 µM [inhibitor, partial curve, poor fit], O=C(NN1C(=O)/C(=C/c2cccs2)SC1=S)c1ccncc1 50.1 µM [inhibitor, partial curve, poor fit], Cn1cnnc1Sc1ccc(/C=C/C(=O)c2ccc(O)cc2)cc1[N+](=O)[O-] 39.8 µM [inhibitor, partial curve], COC(=O)c1c(C)oc(C)c1S(=O)(=O)NCc1ccc(OC)cc1 50.1 µM [inhibitor, full curve, poor fit], CCOc1cccc(NC(=O)/C(C#N)=C\c2cccnc2)c1 89.1 µM [inhibitor, single point], CCCCCCCCCCCCCCCCOC[C@H](COP(=O)([O-])OCC[N+](C)(C)C)OC(=O)CCCCCCCC(=O)O 50.1 µM [inhibitor, partial curve], O=C(CN1C(=O)S/C(=C\c2ccccc2F)C1=O)NCCCn1ccnc1 39.8 µM [inhibitor, single point], FC(F)(F)c1cccc(NC(=S)NNC(=S)NCc2ccccc2)c1 89.1 µM [inhibitor, single point], CCC(CC)c1nnc(NC(=O)CS(=O)(=O)c2ccccc2)s1 100 µM [inhibitor, single point], O=C(O)c1cccc(N2C(=O)/C(=C/c3ccc([N+](=O)[O-])cc3)C=C2c2ccccc2)c1 39.8 µM [inhibitor, single point], CC(C)c1nnc(NC(=O)CCC(=O)Nc2ccccc2)s1 89.1 µM [inhibitor, single point], C=CCNC(=S)Nc1sc2c(c1C(N)=O)CCCC2 79.4 µM [inhibitor, partial curve], Clc1cccc(C(c2ccc3nc[nH]c3c2)n2ccnc2)c1 (stereo unspecified) 25.1 µM [inhibitor, partial curve, poor fit], C=CCSc1nnc(COc2ccc(=O)n(-c3ccccc3)n2)n1CC 100 µM [inhibitor, partial curve, poor fit], O=[N+]([O-])c1cc2c(cc1CN1CCN(CCOCCO)CC1)OCO2 56.2 µM [inhibitor, partial curve, poor fit], O=C1c2ccccc2-c2cccc(C(=O)N3CCN(C(=O)c4ccccc4)CC3)c21 100 µM [inhibitor, single point], CCn1c(SCC(=O)c2ccc(F)cc2)nnc1-c1ccoc1C 44.7 µM [inhibitor, partial curve], COC(=O)N1C(=O)[C@@](c2ccccc2)(C2CCCCC2)N1C(=O)OC 89.1 µM [inhibitor, single point], CCc1noc(C)c1C(=O)N1CCSC1=Nc1cccc(Cl)c1C 56.2 µM [inhibitor, single point], Cc1cc(Cl)ccc1OCC(=O)NCCOC(=O)Nc1sc(=S)n(C)c1C 89.1 µM [inhibitor, partial curve, poor fit], COC(=O)c1sccc1NC(=S)N1CCC(C)CC1 89.1 µM [inhibitor, partial curve, poor fit], CCN(CC)c1ccc(/C=C2/C(=O)ON=C2C)cc1 89.1 µM [inhibitor, partial curve, poor fit], COc1ccc(NS(=O)(=O)c2cccc(NC(=O)NC3CCCCC3)c2)cc1 89.1 µM [inhibitor, single point], COc1ccccc1-n1c(SCC(=O)NCc2ccc3c(c2)OCO3)nc2cc([N+](=O)[O-])ccc21 89.1 µM [inhibitor, single point], O=C(Nc1ccc(-c2noc(CCc3ccccc3)n2)cc1)c1ccco1 7.08 µM [inhibitor, single point], CCCC(C)c1nnc(NC(=O)C(=O)OCC)s1 (stereo unspecified) 89.1 µM [inhibitor, single point], CCOCCn1c(C)c(C(=O)OCC)c2cc(O)c3ccccc3c21 89.1 µM [inhibitor, single point], CCCn1c(NC(=O)CN2C(=O)NC3(CCCCC3)C2=O)nc2ccccc21 44.7 µM [inhibitor, single point], O=C(NC(=S)Nc1c(Cl)ccc2nsnc12)c1ccco1 89.1 µM [inhibitor, single point], Cc1cc(S(=O)(=O)Nc2ccc(O)c(Sc3nc4ccccc4s3)c2)ccc1Cl 79.4 µM [inhibitor, partial curve, poor fit], O=C(O)CCS(=O)(=O)c1nc(-c2cccs2)cc(C(F)(F)F)n1 44.7 µM [inhibitor, partial curve, poor fit], O=[N+]([O-])CC(=Nc1ccc(Cl)cc1)N/N=C\c1oc(O)c2ccccc12 100 µM [inhibitor, single point], CCOc1c2ccc(C(=O)NCc3ccc(OC)cc3)cc2nn1CCOC 89.1 µM [inhibitor, single point]

Potency, active:
CCCc1c(OCC(O)COc2ccc3c(=O)cc(C(=O)O)oc3c2CCC)ccc(C(C)=O)c1O (stereo unspecified) 25.1 µM and 44.7 µM, O=C(CCCCCn1c(=O)c2sccc2n(Cc2ccc(Cl)cc2)c1=O)NCc1ccc2c(c1)OCO2 89.1 µM, COc1cccc(/C=C2/CCC(CN(C)C)C2=O)c1 (stereo unspecified) 39.8 µM, Cc1ccc(S(=O)(=O)N(C(=O)c2ccco2)c2cc3sc(=O)oc3c3ccccc23)cc1 20 µM, Oc1ccccc1C1CC(c2cccs2)=NC(c2cccc(Br)c2)N1 (stereo unspecified) 70.8 µM

Max response, negative = inhibition, inactive:
N#CC1=C(N)Oc2cc(O)c(Cl)cc2C1c1cccnc1 (stereo unspecified) -24%, CC(C)c1nc(SCC(=O)Nc2ccc3c(c2)OCCO3)n[nH]1 -13.9%, O=C(COc1ccc2ccccc2c1)Nc1ccc(Cc2ccncc2)cc1 -4.92%, C[C@]12CCC(=O)C=C1CC[C@@H]1C2[C@@H](O)C[C@@]2(C)[C@H]1CC[C@]2(O)C(=O)CO (stereo partly specified) -15.3%, CCCCOc1ccc(Cn2c(=O)oc3ccc(C)cc32)cc1OC -6.99%, O=C(NCc1ccccn1)Nc1ccccc1F -2.68%, O=C(CSc1ncccn1)NCc1cccc(Cl)c1 1.02%, O=C(Nc1ccc(-c2csc(Nc3ccc(Cl)cc3)n2)cc1)c1cc([N+](=O)[O-])cc(C(F)(F)F)c1 -4.54%, Cc1cccc(Cn2c(SCCN3CCCCC3)nc3c2c(=O)[nH]c(=O)n3C)c1 -10.5%, NS(=O)(=O)c1ccc(-c2ccc(C=O)o2)cc1 -2.18%, Cc1snc(S(=O)(=O)/C(C#N)=N/Nc2cccc(C(F)(F)F)c2)c1C#N -9.73%, O=C(COC(=O)c1cccc(S(=O)(=O)N2CCN(c3ccccc3)CC2)c1)NCc1ccco1 7.27%, COC(=O)c1nc(-c2ccccc2)nc(-c2ccccc2)c1C(=O)OC -8.03%, COc1ccccc1-n1c(CNC(=O)c2ccco2)nnc1SCC(=O)Nc1ccc(F)cc1 1.94%, CN1C=CC=C/C1=C1\SC(=S)N(CC(=O)O)C1=O 0.35%, CSc1nc(SCC(=O)O)c2sc3nc(-c4ccccc4)c4c(c3c2n1)CCC4 -11.5%, O=C(CN(c1ccccc1)S(=O)(=O)c1ccccc1)NCCSCc1ccco1 -8.52%, COc1ccccc1N1CCN(C(=O)c2ccc(Nc3nc4ccccc4n4nnnc34)cc2)CC1 -1.6%, CC(C)C(C(=O)Nc1sc2c(c1C#N)CCCCC2)N1C(=O)c2ccccc2C1=O (stereo unspecified) -0.108%, COCCN(C(=O)CNC(=O)c1ccco1)C(C(=O)NC1CCCC1)c1ccc(OC)cc1 (stereo unspecified) -12.7%, COC(=O)C1=C(Nc2ccc(C)cc2)C=C(C)C(C(=O)OC)C1c1cccc(OC)c1 (stereo unspecified) 16.2%, COc1cc(NC(=O)C2CCCCC2)c(OC)cc1NC(=O)CN1CCCCC1 18.2%
